Structures can show the parent of a compound that is named as a salt. The list shows a part of the results. Single values are uncertain, as repeats are few or missing.

In this assay the test system is p95-ErbB2-MCF7. As to the kind of experiment: perinuclear lysosome accumulation (PNLA, size of LAMP2 puncta), robust Z-score vs plate median; higher = more perinuclear lysosome accumulation (reversal of invasive lysosome distribution). To be noted: 5 µM; 24 h.
Regarding `CNS(=O)(=O)Cc1ccc2[nH]cc(CCN(C)C)c2c1` [Sumatriptan succinate], the perinuclear lysosome accumulation was -1.13.

On to `NS(=O)(=O)c1cc2c(cc1Cl)N=CNS2(=O)=O` [Chlorothiazide], for which the perinuclear lysosome accumulation was 1.22.

In the case of `CCOc1ccccc1OCC1CNCCO1` (configuration not stated) [Viloxazine hydrochloride], the perinuclear lysosome accumulation was -1.35.

Regarding `CC[C@H]1OC(=O)[C@H](C)[C@@H](O[C@H]2C[C@@](C)(OC)[C@@H](O)[C@H](C)O2)[C@H](C)[C@@H](O[C@@H]2O[C@H](C)C[C@H](N(C)C)[C@H]2O)[C@](C)(OC)C[C@@H](C)C(=O)[C@H](C)[C@@H](O)[C@]1(C)O` [Clarithromycin], the perinuclear lysosome accumulation amounted to 0.0472.

As to `CCCCOC(=O)c1ccc(N)cc1` [Butamben], the perinuclear lysosome accumulation was -1.

For `N=C(N)NC(=O)c1nc(Cl)c(N)nc1N` [Amiloride hydrochloride dihydrate], the perinuclear lysosome accumulation was 0.243.

In the case of `O=C1NCN(c2ccccc2)C12CCN(CCCC(c1ccc(F)cc1)c1ccc(F)cc1)CC2` [Fluspirilen], the perinuclear lysosome accumulation came to 4.32.

For `CC(C)(C)C(=O)OCOC(=O)[C@@H]1N2C(=O)[C@@H](NC(=O)[C@H](N)c3ccccc3)[C@H]2SC1(C)C` [Pivampicillin], the perinuclear lysosome accumulation was -1.2.

Consider `O=P(O)(O)C(Cl)(Cl)P(=O)(O)O` [Clodronate], for which the perinuclear lysosome accumulation is -0.657.

Regarding `CCCCOc1cc(C(=O)NCCN(CC)CC)c2ccccc2n1` [Dibucaine], the perinuclear lysosome accumulation is -0.454.

As for `CCS(=O)(=O)CCn1c([N+](=O)[O-])cnc1C` [Tinidazole], the perinuclear lysosome accumulation is -1.12.

As to `O=C1CCc2cc(OCCCCc3nnnn3C3CCCCC3)ccc2N1` [Cilostazol], the perinuclear lysosome accumulation was 1.04.

For `CCC1=C(C)CN(C(=O)NCCc2ccc(S(=O)(=O)NC(=O)N[C@H]3CC[C@H](C)CC3)cc2)C1=O` [Glimepiride], the perinuclear lysosome accumulation is -2.09.

`CC1(C)NC(=O)N(c2ccc([N+](=O)[O-])c(C(F)(F)F)c2)C1=O` [Nilutamide]: the perinuclear lysosome accumulation is -0.0203.

On to `COC(=O)[C@@H]1[C@H]2C[C@H]3c4[nH]c5ccccc5c4CCN3C[C@@H]2CC[C@@H]1O` [Yohimbine hydrochloride], for which the perinuclear lysosome accumulation is -1.15.

For the molecule `CCCCC(CC)CNC(=N)NC(=N)NCCCCCCNC(=N)NC(=N)NCC(CC)CCCC` (configuration not stated) [Alexidine dihydrochloride], the perinuclear lysosome accumulation was determined as 2.12.

Turning to `COc1ccc2cc([C@@H](C)C(=O)O)ccc2c1` [(R) -Naproxen sodium salt], the perinuclear lysosome accumulation came out at 1.11.

As for `Nc1nc(=O)c2c([nH]1)NC[C@@H](CNc1ccc(C(=O)N[C@@H](CCC(=O)O)C(=O)O)cc1)N2C=O` [Folinic acid calcium salt], the perinuclear lysosome accumulation is -1.12.

Take `CCn1cc(C(=O)O)c(=O)c2cnc(N3CCCC3)nc21` [Piromidic acid]: the perinuclear lysosome accumulation was -0.305.

Regarding `O=S(=O)(O)CCS` [Mesna], the perinuclear lysosome accumulation was -1.52.

With `O=C(O)c1cc(-c2ccc(F)cc2F)ccc1O` [Diflunisal], the perinuclear lysosome accumulation was found to be 0.966.

For the molecule `CCCCNC(=O)NS(=O)(=O)c1ccc(C)cc1` [Tolbutamide], the perinuclear lysosome accumulation was -0.326.

As for `CC(=O)[C@H]1CC[C@H]2[C@@H]3C[C@H](C)C4=CC(=O)CC[C@]4(C)[C@H]3[C@@H](O)C[C@]12C` [Medrysone], the perinuclear lysosome accumulation is -0.995.

With `OCc1cc(C(O)CNCCCCCCOCCCCc2ccccc2)ccc1O` (configuration not stated) [Salmeterol], the perinuclear lysosome accumulation was determined as 0.941.

Take `O=C(O)Cc1sc(-c2ccccc2)nc1-c1ccc(Cl)cc1` [Fentiazac]: the perinuclear lysosome accumulation turned out to be 0.313.

On to `Cc1nc2n(c(=O)c1CCN1CCC(c3noc4cc(F)ccc34)CC1)CCCC2` [Risperidone], for which the perinuclear lysosome accumulation is -0.624.

Consider `CNCCC(Oc1ccc(C(F)(F)F)cc1)c1ccccc1` (configuration not stated) [Fluoxetine hydrochloride], for which the perinuclear lysosome accumulation was -3.09.

`CC1CS(=O)(=O)CCN1/N=C/c1ccc([N+](=O)[O-])o1` (configuration not stated) [Nifurtimox]: the perinuclear lysosome accumulation is -0.556.

As to `CN1[C@@H](CC(=O)c2ccccc2)CCC[C@H]1C[C@H](O)c1ccccc1` [Lobeline alpha (-) hydrochoride], the perinuclear lysosome accumulation was -0.709.

In the case of `c1ccc2[nH]c(-c3cscn3)nc2c1` [Tiabendazole], the perinuclear lysosome accumulation is -0.339.

With `CCOC(=O)C1=C[C@]2(CC)CCCN3CCc4c(n1c1ccccc41)[C@@H]32` [Vinpocetine], the perinuclear lysosome accumulation was -0.306.

`Cc1cccc(CN2CCN(C(c3ccccc3)c3ccc(Cl)cc3)CC2)c1` (configuration not stated) [Meclozine dihydrochloride]: the perinuclear lysosome accumulation is -3.18.

As for `O=C(O)CCC(=O)Nc1ccc(S(=O)(=O)Nc2nccs2)cc1` [Succinylsulfathiazole], the perinuclear lysosome accumulation was -0.478.

Turning to `COc1cnc(NS(=O)(=O)c2ccc(N)cc2)nc1` [Sulfameter], the perinuclear lysosome accumulation was found to be 0.284.

With `CCCCC(C)(O)C/C=C/[C@H]1[C@H](O)CC(=O)[C@@H]1CCCCCCC(=O)OC` (mixture of isomers) [Misoprostol], the perinuclear lysosome accumulation was -0.71.

For the molecule `CNCCC(Oc1ccccc1OC)c1ccccc1` (configuration not stated) [Nisoxetine hydrochloride], the perinuclear lysosome accumulation was -0.847.

Consider `COc1ccccc1O` [Guaiacol], for which the perinuclear lysosome accumulation is -0.0556.

As to `CC(=O)N(CC(C)C(=O)O)c1c(I)cc(I)c(N)c1I` (configuration not stated) [Iocetamic acid], the perinuclear lysosome accumulation is -1.12.

Regarding `CN(C)[C@@H]1C(O)=C(C(N)=O)C(=O)[C@@]2(O)C(O)=C3C(=O)c4c(O)ccc(Cl)c4[C@@](C)(O)[C@H]3C[C@@H]12` [Chlortetracycline hydrochloride], the perinuclear lysosome accumulation was -0.667.

Regarding `C[C@]12CC[C@@H]3c4ccc(O)cc4CC[C@H]3[C@@H]1CCC2=O` [Estrone], the perinuclear lysosome accumulation is 0.0247.

`COc1ccc2[nH]c([S+]([O-])Cc3ncc(C)c(OC)c3C)nc2c1` (configuration not stated) [Omeprazole]: the perinuclear lysosome accumulation is -0.877.

Consider `Cc1ccccc1N1C(=O)c2cc(S(N)(=O)=O)c(Cl)cc2NC1C` (configuration not stated) [Metolazone], for which the perinuclear lysosome accumulation is 1.26.

Turning to `Cc1cc(-n2c(=O)[nH]c(=O)n(C)c2=O)ccc1Oc1ccc(SC(F)(F)F)cc1` [Toltrazuril], the perinuclear lysosome accumulation is 0.0425.

Take `C=CC1=C(C(=O)O)N2C(=O)[C@@H](NC(=O)/C(=N\OCC(=O)O)c3csc(N)n3)[C@H]2SC1` [Cefixime]: the perinuclear lysosome accumulation was -1.38.

`OCCOCCN1CCN(C(c2ccccc2)c2ccc(Cl)cc2)CC1` (configuration not stated) [Hydroxyzine dihydrochloride]: the perinuclear lysosome accumulation amounted to 1.61.

Consider `CN(C)CCCO[C@@H]1[C@H]2OC(C)(C)O[C@H]2O[C@@H]1[C@H](O)CO` [Amiprilose hydrochloride], for which the perinuclear lysosome accumulation worked out at 0.535.

Take `C[C@]12CC[C@@H]3c4ccc(O)cc4CC[C@H]3[C@@H]1C[C@@H](O)[C@@H]2O` [Estriol]: the perinuclear lysosome accumulation was found to be 0.177.

Regarding `CC[N+](CC)(CC)CCC(O)(c1ccccc1)C1CCCCC1` (configuration not stated) [Tridihexethyl chloride], the perinuclear lysosome accumulation was found to be 0.51.

Regarding `CCc1cccc2c3c([nH]c12)C(CC)(CC(=O)O)OCC3` (configuration not stated) [Etodolac], the perinuclear lysosome accumulation was 0.363.

Turning to `Cc1noc(NS(=O)(=O)c2ccc(N)cc2)c1C` [Sulfisoxazole], the perinuclear lysosome accumulation worked out at 0.224.

With `CC(Oc1c(Cl)cccc1Cl)C1=NCCN1` (configuration not stated) [Lofexidine], the perinuclear lysosome accumulation is -1.68.

For `CC1=C(CC(=O)O)c2cc(F)ccc2/C1=C\c1ccc([S+](C)[O-])cc1` (configuration not stated) [Sulindac], the perinuclear lysosome accumulation is 0.234.

`CCOC(=O)[C@H](CCc1ccccc1)N[C@@H](C)C(=O)N1CCC[C@H]1C(=O)O` [Enalapril maleate]: the perinuclear lysosome accumulation was -0.37.

As to `CO/N=C(\C(=O)N[C@@H]1C(=O)N2C(C(=O)O)=C(C[N+]3(C)CCCC3)CS[C@H]12)c1csc(N)n1` [Cefepime hydrochloride], the perinuclear lysosome accumulation was determined as 1.23.

In the case of `CC(Oc1ccccc1)C(=O)N[C@@H]1C(=O)N2[C@@H]1SC(C)(C)[C@@H]2C(=O)O` (some centres not stated) [Phenethicillin potassium salt], the perinuclear lysosome accumulation was -0.124.

In the case of `N[C@@H](C(=O)N[C@@H]1C(=O)N2C(C(=O)O)=C(Cl)CS[C@H]12)c1ccccc1` [Cefaclor], the perinuclear lysosome accumulation was -1.14.

With `COc1ccc(C(=O)NCc2ccc(OCCN(C)C)cc2)cc1OC` [Itopride], the perinuclear lysosome accumulation came to 0.00768.

In the case of `O=C1c2ccccc2S(=O)(=O)N1CCCCN1CCN(c2ncccn2)CC1` [Ipsapirone], the perinuclear lysosome accumulation was -1.27.

On to `Cn1c([N+](=O)[O-])cnc1COC(N)=O` [Ronidazole], for which the perinuclear lysosome accumulation turned out to be 0.493.

As to `CN(C)[C@@H]1C(O)=C(C(N)=O)C(=O)[C@@]2(O)C(O)=C3C(=O)c4c(O)ccc(Cl)c4[C@@H](O)[C@H]3C[C@@H]12` [Demeclocycline hydrochloride], the perinuclear lysosome accumulation is -0.545.

On to `c1ccc2c(c1)CCCc1cc(NCCN3CCOCC3)nnc1-2`, for which the perinuclear lysosome accumulation is 0.596.

For the molecule `Nc1cc(-c2ccncc2)c[nH]c1=O` [Amrinone], the perinuclear lysosome accumulation is -1.04.

`CC(N)C12CC3CC(CC(C3)C1)C2` (configuration not stated) [Rimantadine]: the perinuclear lysosome accumulation was found to be 0.81.

Consider `CCC(=O)OCC(=O)[C@@]1(OC(=O)CC)[C@H](C)C[C@H]2[C@H]3[C@H]([C@@H](O)C[C@@]21C)[C@@]1(C)C=CC(=O)C=C1C[C@H]3Cl` [Alclometasone dipropionate], for which the perinuclear lysosome accumulation was 0.153.

Regarding `CN(CCOc1ccc(CC2SC(=O)NC2=O)cc1)c1ccccn1` (configuration not stated) [Rosiglitazone], the perinuclear lysosome accumulation was 0.148.

With `CCCc1nc(C(C)(C)O)c(C(=O)O)n1Cc1ccc(-c2ccccc2-c2nnn[nH]2)cc1` [Olmesartan], the perinuclear lysosome accumulation was determined as 0.428.

In the case of `OC(CCN1CCCCC1)(c1ccccc1)C1CCCCC1` (configuration not stated) [Trihexyphenidyl-D,L Hydrochloride], the perinuclear lysosome accumulation worked out at 0.542.

As for `N=C(N)N/N=C/c1c(Cl)cccc1Cl` [Guanabenz acetate], the perinuclear lysosome accumulation is -0.191.

`CN(C)CCOC(=O)COc1ccc(Cl)cc1` [Meclofenoxate hydrochloride]: the perinuclear lysosome accumulation stood at 1.72.

Turning to `CCOc1ccc(NC(C)=O)cc1` [Phenacetin], the perinuclear lysosome accumulation worked out at 0.432.

As to `CN1CCC[C@@H]1CCO[C@](C)(c1ccccc1)c1ccc(Cl)cc1` [Clemastine fumarate], the perinuclear lysosome accumulation was 3.19.

In the case of `COc1cc2ncnc(Nc3ccc(F)c(Cl)c3)c2cc1OCCCN1CCOCC1` [Gefitinib], the perinuclear lysosome accumulation was 4.1.

As to `CC(C(=O)O)c1ccc(C(=O)c2cccs2)cc1` (configuration not stated) [Suprofen], the perinuclear lysosome accumulation is -0.437.

For `CCCCC[C@H](O)/C=C/[C@H]1[C@H](O)CC(=O)[C@@H]1CCCCCCC(=O)O` [Alprostadil], the perinuclear lysosome accumulation was -0.663.

With `CCN1CCC[C@H]1CNC(=O)c1c(O)c(Cl)cc(Cl)c1OC` [Raclopride], the perinuclear lysosome accumulation is 0.156.

As for `NCc1ccc(S(N)(=O)=O)cc1` [Mafenide hydrochloride], the perinuclear lysosome accumulation came out at 1.19.

Turning to `CN[C@@H]1[C@H](O[C@H]2[C@H](O[C@H]3[C@H](O)[C@@H](O)[C@H](NC(=N)N)[C@@H](O)[C@@H]3NC(=N)N)O[C@@H](C)[C@]2(O)CO)O[C@@H](CO)[C@H](O)[C@H]1O` [Dihydrostreptomycin sulfate], the perinuclear lysosome accumulation came to 0.972.

(Values after the supplement of paper PMC8090911.)
